Data published in patent publication US20060199978A1, “Compounds having serotonin 5-ht17 receptor antagonist activity and muscarinic m4 receptor agonist activity and their use in the treatment of psychotic disorders” (priority 2003, published 2006).
At least one structure is not confirmed: it was looked up by name or label, or the drawing left a doubt.

Target: T1, M4 muscarinic receptors (N1E-115 cells) (Mus musculus, UniProt P32211)
T1 construct: endogenous in cells; host or cells: mouse N1E-115 cells (homogenate)
T1 sequence (P32211 1-479): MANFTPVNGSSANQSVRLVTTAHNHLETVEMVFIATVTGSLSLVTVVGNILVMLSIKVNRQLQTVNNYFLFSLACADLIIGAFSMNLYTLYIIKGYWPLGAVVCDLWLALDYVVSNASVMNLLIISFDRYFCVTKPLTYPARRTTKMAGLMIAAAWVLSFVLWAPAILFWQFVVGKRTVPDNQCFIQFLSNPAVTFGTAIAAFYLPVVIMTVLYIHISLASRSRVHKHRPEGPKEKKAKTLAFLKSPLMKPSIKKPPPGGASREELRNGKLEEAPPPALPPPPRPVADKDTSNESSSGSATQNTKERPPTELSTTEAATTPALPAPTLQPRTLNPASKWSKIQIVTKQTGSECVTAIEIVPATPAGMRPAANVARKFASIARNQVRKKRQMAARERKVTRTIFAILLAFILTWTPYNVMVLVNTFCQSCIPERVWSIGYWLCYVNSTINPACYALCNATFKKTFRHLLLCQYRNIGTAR
Experiment: Homogenate assay for c-AMP production (PACAP-stimulated)
Format: biochemical
Conditions: N1E-115 homogenate, PACAP 0.1 nM stimulation
Method: N1E-115 cells were harvested by scraping and placed in Ribolyser tubes on dry ice. Ice cold buffer (0.5 ml) containing 50 mM Tris HCl, 0.4 mM EDTA and 0.4 mM EGTA (pH 7.4) was added to the tubes. The tubes were then placed in a Ribolyser and shaken at 4 g for 20 sec. The homogenate was then transferred to eppendorf tubes and was then centrifuged at 19,700 g for 30 min at 4° C. The pellet was resuspended in ice cold 50 mM Tris HCl (pH7.4) at a concentration of 50 mg ml^−1 wet weight of tissue. The homogenate was stored in aliquots at −70° C. Protein concentrations of the homogenates were determined using a Bio-Rad protein determination kit. The assay was carried out in a final assay volume of 120 μl containing 50 mM Tris HCl (pH7.4), 5 mM MgCl2 50 μM GTP, 200 μM ATP, 120 μM sucrose, 0.4 mM EDTA, 0.4 mM EGTA, 200 μM ascorbic acid, 20 μM papaverine, 200 μM rolipram, 10 μM vinpocetine, 10 mM phosphocreatinine, 0.4 mM DTT, 100 nM WAY 100635, 1 μM propranolol, 36 μg bacitracin, 4.8 U creatine phosphokinase, 3.6 KIU aprotinin. Homogenate (1 mgml^−1) was preincubated with the test compound in ice cold assay buffer for 10 min. PACAP (0.1 nM) was then added to the tubes. The tubes were then incubated at 30° C. for 20 min and then at 99° C. for 5 min. Levels of c-AMP in the tubes were measured using the Amersham Pharmacia Biotech Biotrak c-AMP enzymeimmunoassay kit.

SMILES: CC(=O)OCC[N+](C)(C)C [acetylcholine]
- reduction of c-AMP levels (agonist activity): showed the ability to reduce c-AMP levels
